Numbering of substitutions follows the chain as printed. Names may count otherwise. No constants are given. Whether binding was seen depends on the method and setting. Some binding calls cover weakened binding; strength is not graded here.

The target in the test is T1, VLP-hCLDN6 (human) (UniProt P56747).
T1 sequence: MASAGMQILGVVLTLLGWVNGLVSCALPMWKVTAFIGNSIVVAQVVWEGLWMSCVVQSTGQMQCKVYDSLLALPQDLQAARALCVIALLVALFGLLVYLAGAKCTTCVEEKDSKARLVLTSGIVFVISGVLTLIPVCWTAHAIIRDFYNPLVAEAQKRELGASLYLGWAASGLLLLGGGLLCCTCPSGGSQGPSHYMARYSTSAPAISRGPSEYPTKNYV
Briefly: ELISA on coated VLP-hCLDN6. For orientation: An ELISA detects its analyte on a solid surface through an enzyme-linked reagent.

B1: murine/human chimeric antibody cAb-2 (antibody, V domains shown)
VH: EVKLVESGGGLVKPGGSLKLSCAASGFTFNEYTMSWVRQTPAKRLEWVVTISSGGGRTYYPDSVKGRFTISRDNARNTLYLQMSSLRSEDTAMYYCIRGDYRYDGFAYWGQGTLVTVST
VL: DIQMTQSPASLSASVGETVTITCRASENIDSYLAWYQQKQGKSPQLLVYASTLLVDGVPSRFSGSRSGTQFSLKINSLQSEDVARYYCQHYYSIPYTFGSGTKLEIK
notes: also called cAb-1 with S31E
On to B1, for which the binding result is “binds”.

B2: humanized antibody hAb-29 (antibody, V domains shown)
VH: B1 VH with K19R, E31D, R76K, S88A, M93V, T119S
VL: B1 VL with A9S, E17D, T18R, Q40P, K74T, N76S, S80P
notes: also called VH2VL4 with HC S31D
As for B2, the binding entry was “binds”.

B3: murine/human chimeric antibody cAb-18 (antibody, V domains shown)
VH: B1 VH with E31S, G105K
VL: B1 VL
notes: also called cAb-1 with G100K
For the molecule B3, the binding result was “binds”.

B4: humanized antibody hAb-34 (antibody, V domains shown)
VH: B1 VH with K19R, E31D, R76K, S88A, M93V, G105A, T119S
VL: B1 VL with A9S, E17D, T18R, Q40P, K74T, N76S, S80P
notes: also called VH2VL4 with HC S31D/G100A
As for B4, the binding entry was “binds”.

B5: humanized antibody hAb-26 (antibody, V domains shown)
VH: B1 VH with K19R, E31Y, R76K, S88A, M93V, T119S
VL: B1 VL with A9S, E17D, T18R, Q40P, K74T, N76S, S80P
notes: also called VH2VL4 with HC S31Y
With B5, the binding entry is “binds”.

B6: humanized antibody hAb-28 (antibody, V domains shown)
VH: B1 VH with K19R, E31Q, R76K, S88A, M93V, T119S
VL: B1 VL with A9S, E17D, T18R, Q40P, K74T, N76S, S80P
notes: also called VH2VL4 with HC S31Q
As to B6, the binding entry is “binds”.

B7: humanized antibody hAb-27 (antibody, V domains shown)
VH: B1 VH with K19R, E31M, R76K, S88A, M93V, T119S
VL: B1 VL with A9S, E17D, T18R, Q40P, K74T, N76S, S80P
notes: also called VH2VL4 with HC S31M
B7: the binding result is listed as “binds”.

B8: humanized antibody hAb-30 (antibody, V domains shown)
VH: B1 VH with K19R, R76K, S88A, M93V, T119S
VL: B1 VL with A9S, E17D, T18R, Q40P, K74T, N76S, S80P
notes: also called VH2VL4 with HC S31E
As for B8, the binding entry is on record as “binds”.

B9: murine/human chimeric antibody cAb-3 (antibody, V domains shown)
VH: B1 VH with E31D
VL: B1 VL
notes: also called cAb-1 with S31D
On to B9, for which the binding result is “binds”.

B10: humanized antibody hAb-33 (antibody, V domains shown)
VH: B1 VH with K19R, E31S, R76K, S88A, M93V, G105A, T119S
VL: B1 VL with A9S, E17D, T18R, Q40P, K74T, N76S, S80P
notes: also called VH2VL4 with HC G100A
As for B10, the binding result was “binds”.

(Values after patent publication EP4707304A1 (Axcynsis Therapeutics Pte. Ltd., dated 2024).)
